Experimental findings from patent publication US12501917B2, “Methods and compositions for treating intestinal disorder” (MARS, INCORPORATED, priority 2019, dated 2025) are described below.

The data set in a line: Quantification of bile acids in stool (uPLC-MS). It counts as in vivo, dog. As to conditions: bile acid in stool, diet responsive dogs; for Days0vs14_fc: day 0 vs day 14; for Days0vs42_fc: day 0 vs day 42.

The amount applied is not stated for every result.

`C[C@H](CCC(=O)O)[C@H]1CC[C@H]2[C@@H]3[C@H](O)[C@H](O)[C@@H]4C[C@H](O)CC[C@]4(C)[C@H]3CC[C@]12C` [GammamuricholicAcid, gamma-muricholic acid] registered a Days0vs14_fc of 16.18 and a Days0vs42_fc of 18.33.
The corresponding values for `C[C@H](CCC(=O)O)[C@H]1CC[C@H]2[C@@H]3[C@@H](O)[C@H](O)[C@@H]4C[C@H](O)CC[C@]4(C)[C@H]3CC[C@]12C` [OmegamuricholicAcid, omega-muricholic acid] are 8.22 and 33.55.
The corresponding values for `C[C@H](CCC(=O)O)[C@H]1CC[C@H]2[C@@H]3[C@H](O)[C@@H](O)[C@@H]4C[C@H](O)CC[C@]4(C)[C@H]3CC[C@]12C` [AlphamuricholicAcid, alpha-muricholic acid] are 1.74 and 2.91.
